Assay results: publication PMC4745748

Molecular target: T1, S100P (human) (UniProt P25815)
T1 sequence: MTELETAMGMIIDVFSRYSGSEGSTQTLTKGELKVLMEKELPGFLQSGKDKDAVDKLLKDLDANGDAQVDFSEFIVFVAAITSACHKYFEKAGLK
Experiment: affinity purification with mass spectrometry; S100P pulled down from the cell membrane protein of S100P overexpressing CL1-0 cells; precipitate digested with trypsin and identified by nanoUPLC-MS/MS (LTQ Orbitrap, Mascot)

integrin α7 (human (endogenous in CL1-0)) (receptor)
binding: binds

Results are given in words; binding and its absence hold for the method and conditions named. Binding seen in cells or lysates may run through a third protein. A yes stands for co-enrichment or nearness to the bait. Other partners may have been found.
